Experimental data as given in the supplement of paper PMC10849652.
Some of the results follow.

The chains behind the UniProt entries cited, without tags or fusion partners. Where a name states a change or a piece, a line headed by the entry shows the natural chain unless it says otherwise.
UniProt P62333, whole entry, looked up: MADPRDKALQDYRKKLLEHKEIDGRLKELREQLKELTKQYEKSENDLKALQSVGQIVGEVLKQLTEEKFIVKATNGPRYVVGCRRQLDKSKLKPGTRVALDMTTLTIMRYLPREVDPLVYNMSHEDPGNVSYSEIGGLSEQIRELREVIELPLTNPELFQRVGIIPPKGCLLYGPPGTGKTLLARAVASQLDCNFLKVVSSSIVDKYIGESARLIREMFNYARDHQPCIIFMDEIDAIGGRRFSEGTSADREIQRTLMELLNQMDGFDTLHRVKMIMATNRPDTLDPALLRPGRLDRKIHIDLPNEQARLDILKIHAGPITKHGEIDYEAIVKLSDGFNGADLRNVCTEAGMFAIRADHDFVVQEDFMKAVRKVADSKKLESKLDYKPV
UniProt Q8WXF1: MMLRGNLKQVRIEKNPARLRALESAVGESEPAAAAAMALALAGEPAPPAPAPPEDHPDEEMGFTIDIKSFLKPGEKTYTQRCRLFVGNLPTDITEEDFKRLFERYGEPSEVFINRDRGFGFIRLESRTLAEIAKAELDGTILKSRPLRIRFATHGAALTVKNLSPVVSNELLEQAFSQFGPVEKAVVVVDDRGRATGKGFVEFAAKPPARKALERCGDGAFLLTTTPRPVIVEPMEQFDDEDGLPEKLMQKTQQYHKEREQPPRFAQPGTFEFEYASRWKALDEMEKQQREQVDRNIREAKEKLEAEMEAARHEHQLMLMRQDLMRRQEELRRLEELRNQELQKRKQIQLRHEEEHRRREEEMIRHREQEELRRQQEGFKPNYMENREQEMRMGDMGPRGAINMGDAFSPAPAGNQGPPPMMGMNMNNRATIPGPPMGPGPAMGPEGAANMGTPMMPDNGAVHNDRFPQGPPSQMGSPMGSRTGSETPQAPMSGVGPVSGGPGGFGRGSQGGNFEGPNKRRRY
UniProt Q9H0R6: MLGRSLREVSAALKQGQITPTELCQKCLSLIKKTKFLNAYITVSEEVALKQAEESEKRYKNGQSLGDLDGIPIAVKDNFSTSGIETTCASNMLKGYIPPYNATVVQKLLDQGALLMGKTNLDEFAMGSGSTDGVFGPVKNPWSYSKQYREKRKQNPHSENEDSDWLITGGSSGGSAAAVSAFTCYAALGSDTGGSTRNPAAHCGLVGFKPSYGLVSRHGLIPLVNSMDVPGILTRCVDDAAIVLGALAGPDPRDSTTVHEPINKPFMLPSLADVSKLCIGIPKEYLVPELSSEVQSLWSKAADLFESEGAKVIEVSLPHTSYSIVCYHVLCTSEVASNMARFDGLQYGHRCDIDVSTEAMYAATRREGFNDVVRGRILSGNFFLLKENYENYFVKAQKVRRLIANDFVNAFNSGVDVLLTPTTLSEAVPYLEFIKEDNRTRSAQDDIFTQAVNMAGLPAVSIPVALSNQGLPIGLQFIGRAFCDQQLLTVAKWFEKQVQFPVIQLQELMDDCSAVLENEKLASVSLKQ
UniProt Q86TP1: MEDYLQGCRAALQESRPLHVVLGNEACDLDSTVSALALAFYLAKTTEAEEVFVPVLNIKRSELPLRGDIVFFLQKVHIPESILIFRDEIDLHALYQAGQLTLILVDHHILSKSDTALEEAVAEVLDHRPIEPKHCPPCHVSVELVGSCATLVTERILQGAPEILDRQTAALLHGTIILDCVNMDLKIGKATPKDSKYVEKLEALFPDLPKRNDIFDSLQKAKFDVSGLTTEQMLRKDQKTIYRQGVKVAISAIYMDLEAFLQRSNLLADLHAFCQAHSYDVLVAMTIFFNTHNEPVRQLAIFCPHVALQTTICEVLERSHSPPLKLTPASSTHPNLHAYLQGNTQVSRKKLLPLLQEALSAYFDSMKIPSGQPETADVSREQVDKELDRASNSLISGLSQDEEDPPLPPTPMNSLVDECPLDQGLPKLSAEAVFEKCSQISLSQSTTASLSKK
UniProt Q6GMV3: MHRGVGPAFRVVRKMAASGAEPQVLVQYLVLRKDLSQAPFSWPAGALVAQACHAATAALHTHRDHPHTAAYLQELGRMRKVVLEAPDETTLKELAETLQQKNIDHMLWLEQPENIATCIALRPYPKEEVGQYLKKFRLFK
UniProt P28070, whole entry, looked up: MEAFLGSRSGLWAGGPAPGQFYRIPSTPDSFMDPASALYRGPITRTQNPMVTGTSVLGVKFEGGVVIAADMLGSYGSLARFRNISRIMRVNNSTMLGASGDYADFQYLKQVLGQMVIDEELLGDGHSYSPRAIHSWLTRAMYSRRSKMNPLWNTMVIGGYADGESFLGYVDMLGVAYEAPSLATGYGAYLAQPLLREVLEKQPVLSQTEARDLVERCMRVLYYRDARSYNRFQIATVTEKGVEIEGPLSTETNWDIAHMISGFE
UniProt O00232: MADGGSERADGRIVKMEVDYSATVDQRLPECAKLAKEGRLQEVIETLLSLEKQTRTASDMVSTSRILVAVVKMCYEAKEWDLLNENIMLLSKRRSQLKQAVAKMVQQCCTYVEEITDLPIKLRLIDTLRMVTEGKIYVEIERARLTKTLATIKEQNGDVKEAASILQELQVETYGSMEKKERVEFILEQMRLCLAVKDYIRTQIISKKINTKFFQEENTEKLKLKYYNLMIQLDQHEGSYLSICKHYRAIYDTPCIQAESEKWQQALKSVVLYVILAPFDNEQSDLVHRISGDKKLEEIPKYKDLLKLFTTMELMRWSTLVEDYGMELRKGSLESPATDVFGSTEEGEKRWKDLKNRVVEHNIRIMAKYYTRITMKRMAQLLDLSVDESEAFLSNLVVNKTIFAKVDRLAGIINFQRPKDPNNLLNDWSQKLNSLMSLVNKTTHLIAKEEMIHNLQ
UniProt Q6ZRP7: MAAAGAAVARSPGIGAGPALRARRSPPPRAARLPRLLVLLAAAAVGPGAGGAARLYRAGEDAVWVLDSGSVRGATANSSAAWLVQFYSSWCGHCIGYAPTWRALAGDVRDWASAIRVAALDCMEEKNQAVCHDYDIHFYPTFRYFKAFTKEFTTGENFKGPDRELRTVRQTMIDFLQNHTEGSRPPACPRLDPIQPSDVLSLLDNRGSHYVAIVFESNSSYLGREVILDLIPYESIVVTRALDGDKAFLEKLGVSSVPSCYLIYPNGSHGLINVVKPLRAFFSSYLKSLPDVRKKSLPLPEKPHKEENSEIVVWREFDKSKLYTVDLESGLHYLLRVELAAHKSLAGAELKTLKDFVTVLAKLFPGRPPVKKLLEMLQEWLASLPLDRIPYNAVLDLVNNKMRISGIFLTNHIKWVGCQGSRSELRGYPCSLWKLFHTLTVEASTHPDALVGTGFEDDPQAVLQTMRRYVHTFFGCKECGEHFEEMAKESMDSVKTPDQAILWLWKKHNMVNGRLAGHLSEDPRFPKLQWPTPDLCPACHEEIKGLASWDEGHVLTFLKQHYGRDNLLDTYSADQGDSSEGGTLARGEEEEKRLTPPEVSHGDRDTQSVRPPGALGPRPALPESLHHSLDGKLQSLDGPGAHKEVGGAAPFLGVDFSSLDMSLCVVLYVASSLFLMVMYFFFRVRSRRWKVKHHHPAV
UniProt P25786: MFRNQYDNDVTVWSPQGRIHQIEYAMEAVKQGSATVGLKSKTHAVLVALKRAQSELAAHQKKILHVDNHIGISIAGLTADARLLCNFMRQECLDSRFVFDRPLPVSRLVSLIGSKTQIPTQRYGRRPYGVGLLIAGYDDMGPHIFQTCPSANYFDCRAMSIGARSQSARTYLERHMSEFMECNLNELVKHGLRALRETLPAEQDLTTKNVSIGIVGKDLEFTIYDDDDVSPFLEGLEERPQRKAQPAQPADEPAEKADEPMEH
UniProt P18031: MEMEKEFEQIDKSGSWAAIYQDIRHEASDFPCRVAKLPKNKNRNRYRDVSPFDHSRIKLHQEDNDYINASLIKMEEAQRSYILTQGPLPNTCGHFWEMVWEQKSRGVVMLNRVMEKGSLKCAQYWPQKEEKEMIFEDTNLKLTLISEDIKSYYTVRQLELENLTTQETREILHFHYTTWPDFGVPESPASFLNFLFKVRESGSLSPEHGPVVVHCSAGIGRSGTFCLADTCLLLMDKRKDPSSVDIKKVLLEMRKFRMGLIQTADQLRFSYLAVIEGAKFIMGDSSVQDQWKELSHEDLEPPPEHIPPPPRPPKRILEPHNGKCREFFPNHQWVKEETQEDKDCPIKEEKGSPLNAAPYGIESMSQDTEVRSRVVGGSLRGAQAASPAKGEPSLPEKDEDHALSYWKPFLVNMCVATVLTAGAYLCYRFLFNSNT
UniProt P07602: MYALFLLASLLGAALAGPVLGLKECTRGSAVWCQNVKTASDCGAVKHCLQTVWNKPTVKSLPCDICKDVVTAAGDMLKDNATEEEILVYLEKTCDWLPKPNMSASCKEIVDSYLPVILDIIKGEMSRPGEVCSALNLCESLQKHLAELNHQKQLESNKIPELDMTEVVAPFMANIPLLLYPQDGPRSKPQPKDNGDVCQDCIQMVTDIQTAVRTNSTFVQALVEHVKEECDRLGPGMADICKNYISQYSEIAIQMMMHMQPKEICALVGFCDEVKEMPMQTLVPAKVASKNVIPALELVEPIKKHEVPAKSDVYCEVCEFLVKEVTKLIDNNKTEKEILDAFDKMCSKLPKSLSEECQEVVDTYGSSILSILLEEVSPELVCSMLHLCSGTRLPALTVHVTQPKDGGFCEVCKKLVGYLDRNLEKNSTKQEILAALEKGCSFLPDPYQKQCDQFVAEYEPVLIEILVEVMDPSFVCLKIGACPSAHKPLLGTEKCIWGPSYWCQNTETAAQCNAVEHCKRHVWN
UniProt Q15257: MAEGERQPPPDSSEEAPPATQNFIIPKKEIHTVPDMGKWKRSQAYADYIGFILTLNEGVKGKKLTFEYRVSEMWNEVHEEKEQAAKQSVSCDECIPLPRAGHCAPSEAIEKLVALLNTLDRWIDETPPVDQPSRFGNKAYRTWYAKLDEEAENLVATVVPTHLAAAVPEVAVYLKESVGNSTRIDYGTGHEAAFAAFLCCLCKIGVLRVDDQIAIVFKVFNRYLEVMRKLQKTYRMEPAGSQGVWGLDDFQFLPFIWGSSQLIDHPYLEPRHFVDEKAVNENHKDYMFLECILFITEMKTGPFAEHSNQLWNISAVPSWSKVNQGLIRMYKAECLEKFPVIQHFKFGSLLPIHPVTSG
UniProt Q15185: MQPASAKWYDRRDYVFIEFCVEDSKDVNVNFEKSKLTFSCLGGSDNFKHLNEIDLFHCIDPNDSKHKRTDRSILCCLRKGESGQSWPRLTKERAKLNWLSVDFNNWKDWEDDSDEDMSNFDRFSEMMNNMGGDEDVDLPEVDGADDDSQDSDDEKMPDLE
UniProt P25787: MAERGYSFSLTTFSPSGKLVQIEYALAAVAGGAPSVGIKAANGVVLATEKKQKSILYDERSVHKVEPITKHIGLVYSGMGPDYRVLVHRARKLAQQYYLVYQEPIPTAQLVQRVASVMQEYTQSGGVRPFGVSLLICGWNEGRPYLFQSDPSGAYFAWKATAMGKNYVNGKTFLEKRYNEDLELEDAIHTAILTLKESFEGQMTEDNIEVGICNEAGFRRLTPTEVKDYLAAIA
UniProt Q96PZ0: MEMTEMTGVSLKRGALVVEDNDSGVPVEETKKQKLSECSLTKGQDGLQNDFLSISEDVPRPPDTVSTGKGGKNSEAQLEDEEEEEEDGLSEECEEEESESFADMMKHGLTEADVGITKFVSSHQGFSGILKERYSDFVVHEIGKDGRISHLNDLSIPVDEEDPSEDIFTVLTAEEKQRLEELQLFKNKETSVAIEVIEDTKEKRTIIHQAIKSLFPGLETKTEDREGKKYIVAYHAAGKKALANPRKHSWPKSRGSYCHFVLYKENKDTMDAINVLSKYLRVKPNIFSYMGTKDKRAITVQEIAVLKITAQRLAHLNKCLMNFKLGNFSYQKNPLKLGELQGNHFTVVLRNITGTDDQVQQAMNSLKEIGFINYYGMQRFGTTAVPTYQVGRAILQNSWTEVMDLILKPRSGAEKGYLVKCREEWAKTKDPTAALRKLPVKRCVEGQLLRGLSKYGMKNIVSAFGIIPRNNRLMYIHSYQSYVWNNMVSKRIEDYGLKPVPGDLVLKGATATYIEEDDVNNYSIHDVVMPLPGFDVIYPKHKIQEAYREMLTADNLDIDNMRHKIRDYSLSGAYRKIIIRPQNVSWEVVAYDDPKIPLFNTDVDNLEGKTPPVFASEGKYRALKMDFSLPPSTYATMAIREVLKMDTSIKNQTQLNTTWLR
UniProt Q00577: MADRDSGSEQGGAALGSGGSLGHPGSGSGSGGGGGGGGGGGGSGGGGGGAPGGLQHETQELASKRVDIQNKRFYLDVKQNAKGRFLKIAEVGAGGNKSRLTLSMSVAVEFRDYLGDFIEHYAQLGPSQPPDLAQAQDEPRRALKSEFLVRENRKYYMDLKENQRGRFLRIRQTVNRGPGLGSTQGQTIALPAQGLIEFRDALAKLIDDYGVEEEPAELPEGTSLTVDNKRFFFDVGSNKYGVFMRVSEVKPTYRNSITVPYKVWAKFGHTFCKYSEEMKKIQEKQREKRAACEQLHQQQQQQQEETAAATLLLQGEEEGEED

Key:
Experiment in all cases: log2 fold change, soluble protein after heating vs DMSO (PISA); higher = thermal stabilisation; K562 cells, 10 uM, 30 min; active = over 0.2 and 3.5 SD of the protein, either way, in both replicates (recomputed)
bafetinib = compound: Cc1ccc(NC(=O)c2ccc(CN3CC[C@H](N(C)C)C3)c(C(F)(F)F)c2)cc1Nc1nccc(-c2cncnc2)n1 [bafetinib]
Method in brief: (§1)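 Soluble protein was quantified by TMTpro 16plex LC-MS/MS after channel sums were equalised. It was obtained as the supernatant after 21,000xg for 90 min from pooled aliquots of K562 cells (2×10^6 cells/mL, 10 μM compound, 30 min) heated for 3 min across 48°C-58°C and extracted in PBS with 0.5% NP-40 at 4°C. Thermal stability values are relative to control samples and come from duplicates. They are given as log2 fold changes.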

[1] = compound: Cc1cccc(CC(=O)N2CCc3c2ccc(-c2cn(C)c4ncnc(N)c24)c3F)n1
Method in brief: as §1

nilotinib = compound: Cc1cn(-c2cc(NC(=O)c3ccc(C)c(Nc4nccc(-c5cccnc5)n4)c3)cc(C(F)(F)F)c2)cn1 [nilotinib]
Method in brief: as §1

[2] = compound: Cc1nc(Nc2n[nH]c3c2CN(C(=O)N[C@H](CN(C)C)c2ccccc2)C3(C)C)c2sccc2n1
Method in brief: as §1

dasatinib = compound: Cc1nc(Nc2ncc(C(=O)Nc3c(C)cccc3Cl)s2)cc(N2CCN(CCO)CC2)n1 [dasatinib]
Method in brief: as §1

[3] = compound: Cc1ncc(-c2ccnc(Nc3ccc(S(C)(=O)=O)cc3)n2)n1C(C)C
Method in brief: as §1

[4] = compound: Cn1cc(-c2ccc3c(c2)CCN3C(=O)Cc2cccc(C(F)(F)F)c2)c2c(N)ncnc21
Method in brief: as §1

[5] = compound: Cn1cc(-c2ccc3nnc(C(F)(F)c4ccc5ncccc5c4)n3n2)cn1
Method in brief: as §1

tipifarnib = compound: Cn1cncc1[C@@](N)(c1ccc(Cl)cc1)c1ccc2c(c1)c(-c1cccc(Cl)c1)cc(=O)n2C [tipifarnib]
Method in brief: as §1

mubritinib = compound: FC(F)(F)c1ccc(/C=C/c2nc(COc3ccc(CCCCn4ccnn4)cc3)co2)cc1 [mubritinib]
Method in brief: as §1

Measured: log2 fold change

PSMA5 (UniProt P28066)
inactive: bafetinib 0.042 | [1] -0.015 | nilotinib 0.002 | [2] 0.034 | dasatinib 0.061 | [3] -0.007 | [4] -0.028 | [5] -0.003 | tipifarnib 0.02 | mubritinib -0.002

PTGFRN (UniProt Q9P2B2)
inactive: bafetinib -0.061 | [1] -0.04 | nilotinib 0.087 | [2] 0.024 | dasatinib 0.046 | [3] 0.048 | [4] 0.038 | [5] 0.009 | tipifarnib 0.032 | mubritinib 0.065

PSMC6 (UniProt P62333)
inactive: bafetinib 0.069 | [1] 0.008 | nilotinib -0.029 | [2] 0.069 | dasatinib 0.039 | [3] -0.02 | [4] -0.068 | [5] 0.002 | tipifarnib 0.104 | mubritinib -0.048

PSPC1 (UniProt Q8WXF1)
inactive: bafetinib 0.015 | [1] 0.088 | nilotinib -0.004 | [2] -0.179 | dasatinib -0.02 | [3] -0.112 | [4] -0.003 | [5] 0 | tipifarnib -0.004 | mubritinib -0.033

QRSL1 (UniProt Q9H0R6)
inactive: bafetinib -0.036 | [1] 0.048 | nilotinib -0.041 | [2] -0.028 | dasatinib -0.171 | [3] 0.045 | [4] 0.037 | [5] 0.024 | tipifarnib 0.002 | mubritinib -0.102

PSTPIP2 (UniProt Q9H939)
inactive: bafetinib 0.022 | [1] -0.034 | nilotinib 0.009 | [2] -0.076 | dasatinib -0.035 | [3] 0.004 | [4] -0.045 | [5] -0.044 | tipifarnib -0.003 | mubritinib -0.011

PTBP3 isoform 4 (UniProt O95758)
inactive: bafetinib 0.062 | [1] 0.011 | nilotinib -0.061 | [2] -0.151 | dasatinib -0.076 | [3] -0.038 | [4] -0.016 | [5] -0.061 | tipifarnib 0.008 | mubritinib -0.04

PRUNE1 (UniProt Q86TP1)
inactive: bafetinib -0.037 | [1] 0.045 | nilotinib -0.051 | [2] -0.054 | dasatinib -0.178 | [3] 0.082 | [4] -0.045 | [5] -0.045 | tipifarnib -0.122 | mubritinib -0.056

PTRHD1 (UniProt Q6GMV3)
inactive: bafetinib -0.067 | [1] 0.024 | nilotinib 0.08 | [2] -0.032 | dasatinib -0.007 | [3] -0.061 | [4] 0.111 | tipifarnib 0.028 | mubritinib 0.043
active: [5] 0.332

PSMB4 (UniProt P28070)
inactive: bafetinib 0.051 | [1] -0.052 | nilotinib 0 | [2] 0.063 | dasatinib 0.076 | [3] -0.015 | [4] -0.03 | [5] 0.014 | tipifarnib 0.047 | mubritinib 0.009

PSMA8 (UniProt Q8TAA3)
inactive: bafetinib 0.082 | [1] -0.049 | nilotinib -0.01 | [2] 0.073 | dasatinib 0.036 | [3] -0.008 | [4] -0.053 | [5] -0.048 | tipifarnib 0.001 | mubritinib -0.027

PSMF1 (UniProt Q92530)
inactive: bafetinib -0.059 | [1] 0.01 | nilotinib -0.009 | [2] -0.022 | dasatinib 0.012 | [3] -0.062 | [4] 0.064 | [5] -0.002 | tipifarnib 0.027 | mubritinib 0.068

Reprinted at random: two entries already listed, in no set order.
PSMF1 (UniProt Q92530)
inactive: bafetinib -0.059 | [1] 0.01 | nilotinib -0.009 | [2] -0.022 | dasatinib 0.012 | [3] -0.062 | [4] 0.064 | [5] -0.002 | tipifarnib 0.027 | mubritinib 0.068

PTRHD1 (UniProt Q6GMV3)
inactive: bafetinib -0.067 | [1] 0.024 | nilotinib 0.08 | [2] -0.032 | dasatinib -0.007 | [3] -0.061 | [4] 0.111 | tipifarnib 0.028 | mubritinib 0.043
active: [5] 0.332

The list continues.

PSMD12 (UniProt O00232)
inactive: bafetinib 0.119 | [1] 0.033 | nilotinib 0.026 | [2] 0.044 | dasatinib 0 | [3] -0.001 | [4] -0.088 | [5] -0.022 | tipifarnib 0.019 | mubritinib -0.034

QSOX2 (UniProt Q6ZRP7)
inactive: bafetinib -0.016 | [1] -0.009 | nilotinib -0.016 | [2] 0.023 | dasatinib -0.019 | [3] 0.013 | [4] 0.045 | [5] -0.012 | tipifarnib 0.023 | mubritinib 0.025

QTRT1 (UniProt Q9BXR0)
inactive: bafetinib -0.009 | [1] -0.03 | nilotinib 0.015 | [2] -0.012 | dasatinib 0.034 | [3] -0.001 | [4] 0.055 | [5] -0.012 | tipifarnib 0.004 | mubritinib 0.043

PTPN11 isoform 1 (UniProt Q06124)
inactive: bafetinib -0.021 | [1] 0.071 | nilotinib 0.019 | [2] -0.024 | dasatinib -0.064 | [3] -0.017 | [4] 0.037 | [5] -0.018 | tipifarnib 0.012 | mubritinib 0.094

PRTFDC1 (UniProt Q9NRG1)
inactive: bafetinib -0.026 | [1] -0.028 | nilotinib -0.014 | [2] 0.029 | dasatinib 0.028 | [3] -0.016 | [4] -0.006 | [5] 0.002 | tipifarnib 0.049 | mubritinib 0.012

PSMD13 (UniProt Q9UNM6)
inactive: bafetinib 0.126 | [1] 0.003 | nilotinib -0.002 | [2] 0.082 | dasatinib 0.023 | [3] -0.018 | [4] -0.114 | [5] -0.008 | tipifarnib 0.095 | mubritinib -0.019

PSME3 isoform 2 (UniProt P61289)
inactive: bafetinib -0.049 | [1] -0.029 | nilotinib 0.011 | [2] -0.001 | dasatinib 0.037 | [3] -0.016 | [4] 0.007 | [5] -0.004 | tipifarnib 0.026 | mubritinib 0.031

PSMA1 isoform 2 (UniProt P25786)
inactive: bafetinib 0.043 | [1] -0.012 | nilotinib 0.006 | [2] 0.057 | dasatinib 0.073 | [3] -0.012 | [4] -0.066 | [5] -0.033 | tipifarnib 0.071 | mubritinib -0.009

PTPN1 (UniProt P18031)
inactive: bafetinib 0.169 | [1] 0.079 | nilotinib -0.146 | [2] -0.191 | dasatinib -0.104 | [3] 0.017 | [4] -0.087 | [5] -0.087 | tipifarnib -0.059 | mubritinib -0.033

PSME1 (UniProt Q06323)
inactive: bafetinib -0.026 | [1] 0.042 | nilotinib -0.001 | [2] -0.001 | dasatinib -0.007 | [3] -0.024 | [4] 0.038 | [5] 0.028 | tipifarnib 0.031 | mubritinib 0.039

QDPR (UniProt P09417)
inactive: bafetinib -0.047 | [1] 0.011 | nilotinib -0.006 | [2] 0.018 | dasatinib 0.088 | [3] -0.014 | [4] -0.023 | [5] 0.018 | tipifarnib 0.022 | mubritinib 0.056

PSME2 (UniProt Q9UL46)
inactive: bafetinib -0.071 | [1] -0.003 | nilotinib -0.033 | [2] -0.038 | dasatinib -0.027 | [3] -0.032 | [4] -0.006 | [5] -0.012 | tipifarnib -0.021 | mubritinib 0.035

PSAP isoform 3 (UniProt P07602)
inactive: bafetinib -0.059 | [1] -0.091 | nilotinib 0.022 | [2] -0.01 | dasatinib 0.068 | [3] 0.006 | [4] 0.002 | [5] 0.035 | tipifarnib 0.028 | mubritinib 0.007

PTPA (UniProt Q15257)
inactive: bafetinib -0.038 | [1] 0.011 | nilotinib -0.014 | [2] 0.012 | dasatinib -0.014 | [3] -0.002 | [4] 0.034 | [5] 0.03 | tipifarnib 0.013 | mubritinib 0.028

PTGES3 (UniProt Q15185)
inactive: bafetinib -0.05 | [1] 0.028 | nilotinib -0.044 | [2] -0.089 | dasatinib -0.142 | [3] -0.042 | [4] 0.034 | [5] 0.039 | tipifarnib -0.119 | mubritinib -0.091

PSMA2 (UniProt P25787)
inactive: bafetinib 0.04 | [1] 0.024 | nilotinib 0.016 | [2] 0.03 | dasatinib 0.068 | [3] -0.017 | [4] -0.047 | [5] -0.026 | tipifarnib 0.03 | mubritinib -0.003

PUS7 isoform 2 (UniProt Q96PZ0)
inactive: bafetinib -0.009 | [1] -0.025 | nilotinib -0.005 | [2] -0.04 | dasatinib -0.008 | [3] -0.085 | [4] -0.028 | [5] -0.022 | tipifarnib 0.016 | mubritinib -0.021

PURA (UniProt Q00577)
inactive: bafetinib 0.108 | [1] -0.089 | nilotinib 0.06 | [2] 0.105 | dasatinib 0.335 | [3] 0.017 | [4] -0.382 | [5] -0.12 | tipifarnib 0.207 | mubritinib -0.06
